Results are given in words; binding and its absence hold for the method and conditions named. Binding seen in cells or lysates may run through a third protein. Some entries that bind do so weakly or less than the wild type. Tags and fused reporters may be left off the sequences shown.

By UniProt entry, the sequences of proteins in these tests, tags left out. Residues count along the entry.
UniProt Q05996, residues 39-640: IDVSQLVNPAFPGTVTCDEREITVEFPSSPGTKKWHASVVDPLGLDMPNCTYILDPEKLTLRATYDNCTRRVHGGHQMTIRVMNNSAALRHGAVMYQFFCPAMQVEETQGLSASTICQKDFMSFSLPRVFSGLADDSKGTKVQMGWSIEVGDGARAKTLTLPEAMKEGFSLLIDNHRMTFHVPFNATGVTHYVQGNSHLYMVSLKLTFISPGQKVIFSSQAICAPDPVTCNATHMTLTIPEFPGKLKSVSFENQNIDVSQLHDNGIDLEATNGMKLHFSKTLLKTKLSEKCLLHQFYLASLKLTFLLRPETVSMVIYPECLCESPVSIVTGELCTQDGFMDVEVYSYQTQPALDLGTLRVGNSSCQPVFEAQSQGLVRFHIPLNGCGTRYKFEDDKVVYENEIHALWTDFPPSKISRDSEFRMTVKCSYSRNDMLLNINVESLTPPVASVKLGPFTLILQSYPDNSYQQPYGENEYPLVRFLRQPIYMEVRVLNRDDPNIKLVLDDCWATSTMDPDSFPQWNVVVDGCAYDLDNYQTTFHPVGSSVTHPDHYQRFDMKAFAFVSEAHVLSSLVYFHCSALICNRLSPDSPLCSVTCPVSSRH

We go through one substance from publication PMC7412702.

Assay [1] deals with T1, HA-tagged human mutant ZP1 (p.Arg109His) (human) (UniProt P60852).
T1 sequence: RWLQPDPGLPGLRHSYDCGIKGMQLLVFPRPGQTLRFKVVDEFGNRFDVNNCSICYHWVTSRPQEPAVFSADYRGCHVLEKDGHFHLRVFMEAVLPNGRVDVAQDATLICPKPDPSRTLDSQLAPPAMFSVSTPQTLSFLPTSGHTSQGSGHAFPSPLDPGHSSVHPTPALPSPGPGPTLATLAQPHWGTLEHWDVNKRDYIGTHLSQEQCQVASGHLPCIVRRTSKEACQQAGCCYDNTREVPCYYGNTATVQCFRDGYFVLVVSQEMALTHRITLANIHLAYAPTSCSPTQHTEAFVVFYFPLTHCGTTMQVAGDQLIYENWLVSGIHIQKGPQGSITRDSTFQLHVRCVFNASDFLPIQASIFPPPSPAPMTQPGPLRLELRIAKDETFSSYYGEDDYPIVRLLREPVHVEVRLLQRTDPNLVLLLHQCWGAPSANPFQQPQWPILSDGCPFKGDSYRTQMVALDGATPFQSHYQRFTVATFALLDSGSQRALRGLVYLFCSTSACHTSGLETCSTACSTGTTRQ
Nature of the assay: co-IP; HeLa cells co-transfected with HA-ZP1 (WT, or WT with R109H), FLAG-ZP2 or MYC-ZP3; lysate, anti-HA antibody on Protein A/G magnetic beads overnight at 4°C, six washes with lysis buffer, Western blot. (In general: In western blotting, separated proteins are transferred to a membrane and probed.)

Assay [2] has as its target T2, MYC-tagged human wild-type ZP3 (human) (UniProt P21754).
T2 sequence: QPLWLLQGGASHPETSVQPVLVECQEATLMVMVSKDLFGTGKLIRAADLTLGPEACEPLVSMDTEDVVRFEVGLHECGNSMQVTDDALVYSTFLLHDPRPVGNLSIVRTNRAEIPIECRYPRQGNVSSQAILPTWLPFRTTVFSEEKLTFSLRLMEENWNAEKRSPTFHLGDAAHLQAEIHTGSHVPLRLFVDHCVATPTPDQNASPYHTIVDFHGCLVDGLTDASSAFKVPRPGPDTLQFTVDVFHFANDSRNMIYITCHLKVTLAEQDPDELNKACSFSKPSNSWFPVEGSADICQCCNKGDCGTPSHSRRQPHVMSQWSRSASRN
The experiment in a line: co-IP; HeLa cells co-transfected with MYC-ZP3 (WT, or WT with A134T), HA-ZP1 or FLAG-ZP2; lysate, Protein A/G magnetic beads overnight at 4°C, Western blot; the legend says anti-HA antibody, the methods also name an anti-MYC antibody.

For the substance “FLAG-tagged human ZP2 (from UniProt Q05996-1 39-640)”, the binding result in assay [1] and in assay [2] was “binds” in each case.
